These results are taken from PubChem BioAssay AID2685 (National Center for Advancing Translational Sciences (NCATS), 2010).

The structures appear in SMILES notation. This is one part of the list. Further columns of the screen follow, without active or inactive calls. The list favours compounds with an active or inconclusive main result. Potencies come from curve fits of mixed quality, noted in brackets.

This experiment is described as follows: qHTS Assay for Lipid Storage Modulators in Drosophila S3 Cells.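 As to cell number change: cells counted by Cell Tracker Red CMTPX staining in the red channel.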 The conditions noted are these: BODIPY lipid droplet fluorescence, 18-24 h; for cell number change: measured here: cell count max response, cells fed with added oleic acid. The gist of the method:
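Drosophila S3 cells got compounds at several concentrations plus oleic acid (400 uM solution). Laser-scanning cytometry with 488 nm excitation read lipid droplets at 500-530 nm and cells at 575-640 nm. Percent activity was relative to 20 uM Triacsin C.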
On the technique in general: qHTS replaces the single test concentration by a dilution series.

Setting [1] is: measured here: cell number channel AC50, cells fed with added oleic acid.
The mark [2] stands for this setting: measured here: lipid fluorescence (Fed channel) AC50, cells fed with added oleic acid.

Usually AC50 stands for the concentration at which the activity in the assay is half-maximal. A lower AC50 goes with activity at low concentration. Turning to `O=C(NCc1cccnc1)c1csc2c1CCCC2`, the AC50 is 1.46 µM [rising, full curve] under setting [1] and 0.651 µM [falling, single point] under setting [2].

For the compound `CCc1ccc(NC(=O)CSc2nc(O)cc(=O)n2C2CCCC2)cc1`, the cell number change was 38.6%. Moreover, the AC50 under setting [1] is 29.1 µM [rising, single point].

`Clc1cccc(Cl)c1OCCCCN1CCCCC1`: the cell number change was found to be 42.6%. Besides, the AC50 under setting [1] is 18.4 µM [rising, partial curve, poor fit].

`CN1C(=O)C(CC(=O)Nc2ccc(F)cc2)N(NC(=O)c2cccc(F)c2)C1=S` (stereo not drawn): the cell number change was -9.9%. Also, the AC50 under setting [2] is 18.4 µM [falling, partial curve].

As to `COc1ccc(-c2cc(C(=O)NCC3CCCO3)c3ccccc3n2)cc1` (stereo not drawn), the cell number change was 20.5%. Under setting [1], the AC50 was 0.92 µM [rising, full curve, poor fit]. In addition, the AC50 under setting [2] was 1.03 µM [rising, full curve, poor fit].

Consider `COC(=O)C(NC(=O)CCC(=O)NC(C(=O)OC)c1ccccc1)c1ccccc1` (stereo not drawn), for which the cell number change is 10%. Besides, the AC50 under setting [2] was 29.1 µM [rising, single point].

Take `O=C(COC(=O)c1ccc(F)cc1F)Nc1ncccn1`: the cell number change is -45.4%. In addition, under setting [1], the AC50 was 3.66 µM [falling, full curve]. Further, under setting [2], the AC50 was 3.66 µM [falling, full curve].

Consider `CC(C)(C)c1cc(C(=O)NCc2cc(F)cc3c2OCOC3)n(Cc2ccccc2)n1`, for which the cell number change came out at 13.2%. Also, the AC50 under setting [2] was 2.06 µM [rising, partial curve].

Consider `CC1CCCCN1Cc1nc2c(c(=O)n(C)c(=O)n2C)n1Cc1c(F)cccc1Cl` (stereo not drawn), for which the cell number change came out at 14.5%. The AC50 under setting [2] was 0.461 µM [rising, full curve, poor fit].

With `Cc1cccc(-n2c(-c3ccoc3C)n[nH]c2=S)c1`, the cell number change was -36.9%. Moreover, under setting [1], the AC50 is 29.1 µM [falling, single point]. The AC50 under setting [2] was 23.1 µM [falling, partial curve].

Turning to `CCCCC(=O)Nc1ccc(C(=O)N2CCC(C(=O)OCC)CC2)cc1`, the cell number change was 70.1%. The AC50 under setting [1] is 29.1 µM [rising, single point]. In addition, under setting [2], the AC50 is 0.164 µM [falling, full curve, poor fit].

Take `CCNc1nc(NC(C)CC)nc(Oc2ccc(=O)[nH]n2)n1` (stereo not drawn): the cell number change worked out at 12.1%.

Turning to `NC(=O)CC(NC(=O)c1ccc(Br)cc1)c1ccc(N2CCCCCCC2)c([N+](=O)[O-])c1` (stereo not drawn), the cell number change was -46%. Under setting [1], the AC50 was 16.4 µM [falling, single point]. Further, under setting [2], the AC50 was 29.1 µM [falling, single point].

Consider `S=C(c1cccs1)N1CCCC1`, for which the AC50 is, setting by setting: under setting [1], 0.00461 µM [falling, full curve, poor fit]; under setting [2], 1.84 µM [falling, partial curve].

On to `CCOC(=O)C1CCCN(S(=O)(=O)c2ccc(OC)cc2)C1` (stereo not drawn), for which the cell number change was -26%. For the same compound, the AC50 under setting [2] was 0.206 µM [falling, full curve, poor fit].

On to `CCCN(C(=O)c1ccc(OCC(C)C)cc1)c1c(N)n(Cc2ccccc2)c(=O)[nH]c1=O`, for which the cell number change was -31%. Besides, the AC50 under setting [1] was 7.31 µM [falling, partial curve].

On to `Cc1cc(C)cc(NC(=O)CN2CCC(NC(=O)Cc3ccccc3)CC2)c1`, for which the cell number change is 12.5%. Further, under setting [2], the AC50 is 32.6 µM [rising, single point].

For the compound `Cc1ccccc1-c1nc(C(=O)NCC2CCCO2)cc2c1[nH]c1ccccc12` (stereo not drawn), the cell number change stood at 9.71%. Also, the AC50 under setting [2] is 29.1 µM [falling, single point].

`COc1ccc(S(=O)(=O)Nc2cccc(SC)c2)cc1C(=O)N1CCOCC1`: the cell number change came to 18.4%.

Consider `COc1cccc2c(=O)c(C(=O)O)c[nH]c12`, for which the cell number change was 46.6%. Besides, the AC50 under setting [1] was 16.4 µM [rising, partial curve].

For `COc1ccc(CN2C(=O)c3cccnc3C2Nc2ccc(C)cc2)cc1` (stereo not drawn), the AC50 reads like this: under setting [1], 0.92 µM [rising, full curve]; under setting [2], 1.03 µM [rising, full curve].

For the compound `CCCC1(C(=O)OC)NC(c2ccco2)C2C(=O)N(C)C(=O)C21` (stereo not drawn), the cell number change was -55.2%. The concentration at half-maximal activity (AC50) under setting [1] was 23.1 µM [falling, single point]. Besides, the AC50 under setting [2] was 18.4 µM [falling, single point].

On to `Cc1nc(-c2c(C(F)(F)F)noc2-c2ccc(O)cc2O)cs1`, for which the cell number change is -28.4%. Also, the AC50 under setting [2] was 32.6 µM [falling, single point].

On to `CC(NC(=O)Nc1ccc(F)cc1)C(c1cccs1)N1CCCC1` (stereo not drawn), for which the cell number change amounted to 40.2%. Further, under setting [1], the AC50 was 29.1 µM [rising, partial curve, poor fit].

Consider `CCN(CC)C(=O)CN(c1cc2c(cc1OC)oc1ccccc12)S(=O)(=O)c1ccccc1`, for which the cell number change worked out at 35.3%. The AC50 under setting [1] is 0.58 µM [rising, full curve, poor fit].

As to `Cc1ccccc1CSc1nncn1N`, the cell number change came out at 9.47%. The AC50 under setting [2] was 4.61 µM [falling, full curve, poor fit].

With `O=C(O)CCC1(C(=O)O)OCCc2ccccc21` (stereo not drawn), the AC50 is, setting by setting: under setting [1], 6.51 µM [falling, single point]; under setting [2], 1.64 µM [falling, partial curve].

`Cc1cc(NC(=O)CCC(=O)N(CC(=O)NCC2CCCO2)c2ccc(C)c(C)c2)no1` (stereo not drawn): the AC50 under setting [2] is 0.0058 µM [falling, full curve, poor fit].

Turning to `CC(=O)Nc1ccc(S(=O)(=O)NC(C)C(=O)NC(C)c2ccccc2)cc1` (stereo not drawn), the cell number change was 46.1%. Besides, the AC50 under setting [1] is 7.31 µM [rising, partial curve].

With `Cc1ccc(C)c(NC(=O)CSc2nnc(C)c(=O)n2N)c1`, the cell number change was 47.2%. Besides, under setting [1], the AC50 is 11.6 µM [rising, partial curve]. The AC50 under setting [2] was 23.1 µM [rising, partial curve].

On to `O=C(COc1ccccc1-c1ccccc1)N/N=C/c1ccc2ccccc2c1`, for which the cell number change was -34.4%. Besides, the AC50 under setting [1] was 9.2 µM [falling, partial curve]. Under setting [2], the AC50 was 14.6 µM [falling, partial curve].

`CCC1(C)Cc2c(c(=O)n(-c3ccccc3)c3ncnc(N)c23)CO1` (stereo not drawn): the cell number change is 0.674%. For the same compound, under setting [2], the AC50 is 0.411 µM [falling, partial curve, poor fit].

Regarding `N/C(=N\OC(=O)Cc1cccs1)c1ccc(Cl)cc1`, the cell number change was 21.6%. Further, the AC50 under setting [2] was 2.91 µM [rising, partial curve].

With `COc1cc(/C=C/C(=O)OCC(=O)NC(=O)NC23CC4CC(CC(C4)C2)C3)ccc1OCC#N`, the cell number change is -33.5%. Further, the AC50 under setting [1] is 2.91 µM [rising, single point]. Besides, under setting [2], the AC50 is 3.66 µM [rising, full curve].

For the compound `CCOc1ccccc1C(=O)NC1CCNCC1`, the cell number change came to 12.9%. In addition, the AC50 under setting [2] was 9.2 µM [rising, partial curve].

Take `CC1CCCC(NC(=O)COC(=O)CCC2CCCC2)C1C` (stereo not drawn): the cell number change is -23.8%. In addition, the AC50 under setting [2] is 29.1 µM [falling, single point].

For `CC(OC(=O)COc1ccc(C#N)cc1)C(=O)Nc1ccc(Cl)cn1` (stereo not drawn), the cell number change came out at 9.24%.

Consider `Cc1cccc(C2NS(=O)(=O)N=C2N)c1` (stereo not drawn), for which the cell number change was determined as 35%. Besides, under setting [1], the AC50 is 29.1 µM [rising, single point]. Moreover, the AC50 under setting [2] is 29.1 µM [falling, single point].

As to `O=[N+]([O-])c1ccc(COc2ccccc2/C=N/O)cc1`, the AC50 under setting [2] was 0.0058 µM [falling, full curve, poor fit].

For the compound `CC(C)(C)NC(=S)NCc1ccco1`, the cell number change was -17.2%. In addition, the AC50 under setting [2] was 3.26 µM [falling, single point].

`COc1ccc2cc(CCNC(=O)CCc3ccccc3)c(=O)[nH]c2c1`: the cell number change is -13%. In addition, the AC50 under setting [1] was 0.13 µM [falling, full curve, poor fit].

Turning to `C/C(=N\NC(=O)c1ccc(CSc2cccc3cccnc23)cc1)C1CCCCC1`, the cell number change was -0.918%. Further, the AC50 under setting [2] was 1.46 µM [rising, partial curve].

Turning to `O=C(NNC(=S)NCc1ccccc1)c1ccc(OC(F)F)cc1`, the cell number change worked out at 24.3%. Moreover, the AC50 under setting [2] was 0.0326 µM [rising, full curve].

For the compound `Cc1cc(C)c(NC(=O)CNC(=O)CNC(=O)C2CCCCC2)c(C)c1`, the cell number change worked out at 20.4%. In addition, the AC50 under setting [2] was 2.91 µM [falling, single point].

On to `CCOc1ccc(-n2c(SCC(=O)Nc3ccc(CC)cc3)nc3n[nH]c(C)c3c2=N)cc1`, for which the cell number change is -46.6%. Moreover, the AC50 under setting [1] is 23.1 µM [falling, single point]. Besides, the AC50 under setting [2] is 18.4 µM [falling, single point].

As for `O=C(CCNS(=O)(=O)c1ccccc1C(F)(F)F)NCCCc1ccccc1`, the cell number change is -3.42%. Besides, the AC50 under setting [2] is 2.31 µM [rising, single point].

Regarding `COc1ccc(C(=O)NCc2ccc(-n3cccc3)cc2)cc1OC`, the cell number change is -6.15%. In addition, the AC50 under setting [1] was 6.51 µM [rising, single point]. The AC50 under setting [2] was 6.51 µM [rising, partial curve, poor fit].

As to `CN(C)C(CNC(=O)c1ccc2[nH]c(=O)c(=O)[nH]c2c1)c1ccco1` (stereo not drawn), the cell number change was -33.9%. For the same compound, under setting [1], the AC50 was 25.9 µM [falling, single point].

For `COc1ccc(CNC(=O)CCN2C(=O)c3ccccc3S2(=O)=O)cc1`, the cell number change is -19.9%. Further, the AC50 under setting [2] was 14.6 µM [falling, partial curve].

Take `CN(CC(O)COc1c(F)cc(Br)cc1F)C1CCCCC1` (stereo not drawn): the cell number change amounted to 4.75%. In addition, the AC50 under setting [1] was 2.06 µM [falling, partial curve].

`CCOc1ccc(N2C(=O)/C(=C/c3ccccc3OCC(=O)OC)N(CC(=O)OC)C2=S)cc1`: the cell number change turned out to be 27.6%. In addition, under setting [2], the AC50 is 20.6 µM [rising, single point].

For the compound `Cc1ccc(C)c(Cn2nc(-c3ccccc3)ccc2=O)c1`, the cell number change was -20.6%.

`Cc1c(C(=O)NNC(=O)c2csc(N3CCOCC3)n2)oc2ccccc12`: the cell number change amounted to 17.9%. Moreover, the AC50 under setting [2] was 18.4 µM [rising, single point].

Regarding `Cc1cc(C(=O)NC2CCCC(C)C2C)c2ccccc2n1` (stereo not drawn), the cell number change is -1.16%. The AC50 under setting [2] is 18.4 µM [rising, partial curve].

In the case of `COc1ccc(/C=N/N=C2/NC(=O)C(c3ccccc3)(c3ccccc3)S2)cc1`, the AC50 under setting [2] was 20.6 µM [falling, partial curve].

In the case of `COc1cc(C(=O)OCc2cccc(S(=O)(=O)N3CCOCC3)c2)ccc1OCC(C)C`, the cell number change was -6.14%. Also, under setting [2], the AC50 was 0.58 µM [rising, single point].

As for `COc1ccccc1NC(=O)CSc1nnc(CC(=O)Nc2ccccc2C)n1C`, the cell number change is 21.8%.
